From US6245791A, “Use of 2-amino-6-trifluoromethoxybenzothiazole for the prevention or treatment of cerebellar dysfunction” (Aventis Pharma S.A., priority 1998, dated 2001)

How the values were obtained:
[1] = system: glutamate uptake in preparations from cerebral cortex, striatum, spinal cord; settings: striatum or spinal cord
[2] = system: glutamate uptake in synaptosomes of rat cerebellum; settings: read-out: half-maximum effective concentration (EC50) for increase in glutamate uptake; rat cerebellar synaptosomes, specific (sodium-dependent) uptake, 3 min at 37° C., pH 7.3, sigmoidal regression, n=8

## Nc1nc2ccc(OC(F)(F)F)cc2s1 [riluzole, 2-amino-6-trifluoromethoxybenzothiazole]
[1]
  increase in glutamate transport (result in words): not observed
[2]
  EC50: 24.5 µM
